These results are taken from PubChem BioAssay AID1347423 (Functional Genomics Laboratory (NCATS/FGL), 2020).

Screen size: about 52,000 sequences; about 210 (0.4%) were called active.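 How the source made its calls: active means gene whose silencing raises cell survival under the drug, median off-target-corrected z-score across its silencing RNAs 2 or more; inactive means the rest.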 This is one part of the list.

The nature of this assay: Resistance to Poly (ADP-Ribose) Polymerase inhibitor: Gene Identification via Genome-wide siRNA Screen. As to conditions: mouse BRCA2 R2336H ES cells, olaparib, CellTiter-Glo viability; stronger effect = higher value. In a few lines: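 Genome-wide siRNA screen (3 siRNAs/gene, 20 nM) in mouse ES cells carrying hypomorphic BRCA2 R2336H; olaparib 500 nM added 48 h post-transfection, CellTiter-Glo viability 72 h later. Normalized to plate-median negative control; MAD z-scores, gene median, seed-adjusted.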
Take GCCUAUCUGUGACUGACCUTT against LOC433501: the z-score is inactive: 1.1.

Regarding CCACCUUCGGUUCAACUAUTT against Gal3st2, the z-score is inactive: -0.128.

With “GGAUGUGGAAUCAUGCUAUTT against C430013M08Rik”, the z-score was inactive: -2.06.

As for GGUCCCAAGAAUUUUUAAATT against Kntc2, the z-score is inactive: 0.519.

Regarding “GGCGGUUUAUGGUAUAAACTT against 2700049P18Rik”, the z-score was inactive: 1.39.

Consider GGCGCAUUAUGGAGACUCATT against Cebpe, for which the z-score was inactive: -0.199.

For GGACUUUGCGUAUAGCCCUTT against Tulp3, the z-score is inactive: 0.196.

As for CGUAAAAGGACUCUACAAATT against Papss2, the z-score was inactive: 0.567.

For the sequence “CCGAAAAUGUGGUAAAGUATT against 2610207I05Rik”, the z-score was inactive: -2.13.

Take GGUUUUCCCUCCAGAUGAGTT against Mtch1: the z-score is inactive: 1.2.

GGCACAAGUCCAUGUUGUUTT against Grcc2f: the z-score was inactive: -1.91.

Turning to GGGCUUGUUUGACUUUCAUTT against Btd, the z-score was inactive: -0.89.

In the case of “CGAACUCGAAUGCUAACGCTT against D7Ertd156e”, the z-score was inactive: 0.897.

For the sequence GGCUGUGGAAAACAGUAGUTT against Psma3, the z-score was inactive: 1.24.

CCUGGUGCUAUGGACUAAATT against Tectb: the z-score was inactive: 0.706.

Consider GGCAAAAAGAUAGGAGCUGTT against Txn1, for which the z-score is inactive: -1.73.

GGAAUUAUAGGACUUGUUCTT against Tde2: the z-score was inactive: 1.01.

With GGAGGAAGAUCUUUAAUGUTT against LOC215714, the z-score is inactive: 1.09.

Turning to “GGCUCUGGCUGAUUUUGCATT against 2510048K03Rik”, the z-score was inactive: 1.25.

In the case of “GCUCUAAAGAGUCCCAAGATT against 2610020O08Rik”, the z-score was inactive: -1.34.

As to “GGAGUCUUGGAAAAAAGGCTT against 2210417D09Rik”, the z-score is inactive: -0.446.

Take “GCUAUGUUUAGGCACAAUATT against C130023O10Rik”: the z-score is inactive: 0.567.

For GGAAAAGUGAAGGUGAUUCTT against Stch, the z-score was inactive: 0.739.

Take GCUGCUCCCUCUAAUAAAATT against Cbr1: the z-score is inactive: 0.901.

As for GGAAUAUGAGUUUUCUCAGTT against Zfp68, the z-score was inactive: -1.05.

“GGAGUCUGUCUUAUCAUUUTT against 2900011O08Rik”: the z-score is inactive: 1.29.

Take “GGCAUCUGUAAGAUGUACGTT against 1700018B24Rik”: the z-score was inactive: 0.159.

As for UUUAUACUUCCCUGAUUUUTT against Olfr943, the z-score was inactive: 0.856.

For GGGUCUAAGAUGCAAACGCTT against Flt3l, the z-score was inactive: 0.967.

For the sequence “CCUAUACUUUUGGUCUUAGTT against 2010305A19Rik”, the z-score was inactive: -1.41.

With GGGCUUAUUUAAAAAGAAGTT against Foxa1, the z-score is inactive: -1.43.

For GCAAAGAUUCAGGCCUGUGTT against Tle6, the z-score is inactive: -2.1.

On to GGGAAAGCCAUAUUUUUUATT against Galr1, for which the z-score was inactive: 1.61.

As to GCAUAUGGAGCAACUUGCUTT against Dsg1c, the z-score was inactive: 1.83.

With CAAUAGAGACUAGCCUCAUTT against Olfr160, the z-score was inactive: 0.251.

Turning to CAAGAAGGUCAUGUUAUUGTT against Olfr106, the z-score is inactive: 0.823.

As to GGCACCCAUUCCUAAAAUGTT against Nsbp1, the z-score is inactive: 0.0676.

GGCCUUUCCUCUACACCCUTT against BC033606: the z-score is inactive: 1.11.

Turning to “GGACCUUACUCAUCUAGCATT against D630004N19Rik”, the z-score was inactive: 1.5.

Turning to GGAGCACAUCUUUUCUGCCTT against Mixl1, the z-score is inactive: -0.974.

Regarding “CGAAUUAAUCUCACAGGAGTT against 3100002B05Rik”, the z-score was inactive: 1.26.

Take CCAUCUGUCAUGACUACCUTT against Timm10: the z-score was inactive: -0.165.

As to GGACAACACCCUGAUGAUATT against V1rh9, the z-score was inactive: -0.57.

Take GGAAGCAGUCAGCUAACACTT against Baz1b: the z-score is inactive: -2.09.

Take GGUAUUCCAGAGAAAGAUATT against Zfp207: the z-score is inactive: -2.2.

Consider GCUGAGAUCUUACUAUUAGTT against Olfr1239, for which the z-score is inactive: 0.0116.

Consider “GUGCCAUGAAGAUCUCAAATT against 1110014K05Rik”, for which the z-score was inactive: 1.88.

As to GCCUCAACCAAUCAUGAAGTT against Dbp, the z-score was inactive: 1.06.

On to CCUAAUGGUUCAGGAUACGTT against Pcdhb5, for which the z-score is inactive: 0.473.

Take “GCUGACAACUGAUGGGAAGTT against C330027G06Rik”: the z-score is inactive: -1.41.

For GGAGAUCCACGAUUUGUUCTT against Adck1, the z-score was inactive: 0.245.

With GGUGAAACGACUGUUAAGUTT against Pde7b, the z-score is inactive: -0.925.

GGAUCAUGUGUCAGUAACATT against Hmgn2: the z-score is inactive: -0.568.

GGGCAGCAGCAAUUUCUGUTT against Ahcyl1: the z-score is inactive: 1.38.

In the case of “GCUCACCUUUCUUGAGAAATT against 4930579C12Rik”, the z-score is inactive: 0.795.

Turning to CGCUAUGGUUUCUCAGCUUTT against Myh4, the z-score is inactive: 0.634.

Take “GCCUAUUCCUACUUAUAACTT against 6030408C04Rik”: the z-score was inactive: 0.537.

For GGAUGUAUAACUUUUUCUCTT against Pltp, the z-score is inactive: 1.02.

As to GCUAAGAAUGAGCAUUAUCTT against Npr2, the z-score was inactive: -0.915.

Regarding GCCCAUCAGACUUCUACUUTT against Slc22a17, the z-score was inactive: -1.01.

As for GUGCAAAUUACAGAAAUUCTT against Rkhd3, the z-score was inactive: 0.22.

Regarding GAUACUCUUUGGGCCAUUGTT against V2r4, the z-score was inactive: -1.93.

Take GGAAUUUCUACGGAAACAATT against Myom2: the z-score was inactive: 1.27.

For the sequence GGAAGAGGAACAGUUAGCCTT against Zfp553, the z-score is inactive: 1.4.

Consider GCUUAAGGAUCCAUAAUGUTT against Musk, for which the z-score is inactive: -0.0655.

Turning to GGAUCAAGCCGAACAGUUCTT against Pigk, the z-score was inactive: -0.282.
